Measured values from EP4667484A1.
No constants are given. Whether binding was seen depends on the method and setting. In cells and extracts the contact can be indirect. Some entries that bind do so weakly or less than the wild type.

Chains of the proteins cited; added tags and fusions are not shown. Lines headed by an entry give the natural chain unless they say otherwise; changes in a name come on top. A line that says so, or that is headed by a name, gives the form on record, which may keep a tag or linker. Residues count along the entry.
UniProt P18510, residues 26-177: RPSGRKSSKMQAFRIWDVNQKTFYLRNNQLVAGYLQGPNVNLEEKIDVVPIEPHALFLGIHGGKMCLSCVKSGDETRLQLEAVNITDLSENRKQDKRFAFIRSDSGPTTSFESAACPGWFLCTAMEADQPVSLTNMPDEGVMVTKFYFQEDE
Myc-tagged control wild-type IL-1R1 protein (P14778, residues 18-569): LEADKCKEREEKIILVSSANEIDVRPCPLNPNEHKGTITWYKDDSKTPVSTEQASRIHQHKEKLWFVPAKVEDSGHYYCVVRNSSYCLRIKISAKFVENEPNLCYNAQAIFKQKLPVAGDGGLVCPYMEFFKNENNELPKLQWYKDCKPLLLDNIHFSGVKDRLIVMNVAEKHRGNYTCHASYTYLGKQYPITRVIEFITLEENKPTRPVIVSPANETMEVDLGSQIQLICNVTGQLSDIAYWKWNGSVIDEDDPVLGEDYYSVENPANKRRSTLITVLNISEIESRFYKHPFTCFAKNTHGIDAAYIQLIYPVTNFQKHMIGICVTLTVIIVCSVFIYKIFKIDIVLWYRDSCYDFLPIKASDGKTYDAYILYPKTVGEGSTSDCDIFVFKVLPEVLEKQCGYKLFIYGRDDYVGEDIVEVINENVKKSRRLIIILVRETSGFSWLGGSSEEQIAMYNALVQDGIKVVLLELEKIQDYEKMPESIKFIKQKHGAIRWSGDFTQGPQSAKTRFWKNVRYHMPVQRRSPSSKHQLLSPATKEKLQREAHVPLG
Myc-tagged K131H mutant IL-1R1 protein (P14778, form named): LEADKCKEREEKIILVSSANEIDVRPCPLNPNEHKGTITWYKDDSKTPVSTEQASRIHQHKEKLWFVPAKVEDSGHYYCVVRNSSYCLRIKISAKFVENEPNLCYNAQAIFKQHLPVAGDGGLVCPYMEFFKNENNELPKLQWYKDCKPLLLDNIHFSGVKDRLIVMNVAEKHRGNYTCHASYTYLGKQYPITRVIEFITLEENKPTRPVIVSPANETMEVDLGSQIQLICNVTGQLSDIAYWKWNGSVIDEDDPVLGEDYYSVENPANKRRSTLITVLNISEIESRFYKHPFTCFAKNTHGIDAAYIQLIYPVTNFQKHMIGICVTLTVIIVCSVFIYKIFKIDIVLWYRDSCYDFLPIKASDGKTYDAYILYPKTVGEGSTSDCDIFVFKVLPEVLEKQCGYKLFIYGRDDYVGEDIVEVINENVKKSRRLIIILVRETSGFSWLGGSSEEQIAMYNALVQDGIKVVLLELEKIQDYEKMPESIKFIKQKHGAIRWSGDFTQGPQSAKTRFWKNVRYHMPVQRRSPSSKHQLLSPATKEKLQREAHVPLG
Myc-tagged K131R mutant IL-1R1 protein (P14778, form named): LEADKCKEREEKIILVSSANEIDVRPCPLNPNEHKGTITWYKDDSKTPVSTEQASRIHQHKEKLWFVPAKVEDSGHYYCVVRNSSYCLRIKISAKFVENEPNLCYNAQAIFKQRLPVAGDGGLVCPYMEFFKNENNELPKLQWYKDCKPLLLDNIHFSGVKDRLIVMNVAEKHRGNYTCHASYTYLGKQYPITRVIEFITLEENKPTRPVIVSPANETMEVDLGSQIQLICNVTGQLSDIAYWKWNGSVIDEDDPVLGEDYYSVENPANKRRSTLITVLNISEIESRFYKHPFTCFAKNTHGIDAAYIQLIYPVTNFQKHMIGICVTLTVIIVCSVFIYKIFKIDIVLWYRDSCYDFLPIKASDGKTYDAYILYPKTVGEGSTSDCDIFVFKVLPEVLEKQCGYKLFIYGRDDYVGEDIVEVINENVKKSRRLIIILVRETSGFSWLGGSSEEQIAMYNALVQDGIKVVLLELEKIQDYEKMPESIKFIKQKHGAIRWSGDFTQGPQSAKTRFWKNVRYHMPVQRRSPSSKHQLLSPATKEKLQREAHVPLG

Columns and labels:
[1] = target: recombinant human IL-1Ra protein (Sino Biological) (human) (UniProt P18510); test: co-immunoprecipitation, anti-Flag beads, Western blot
[2] = target: recombinant human IL-1Ra protein (Sino Biological) (human) (UniProt P18510); test: co-immunoprecipitation, anti-Myc beads, Western blot

Substance | binding [1] | binding [2]
Flag-tagged K131E mutant IL-1R1 protein (from UniProt P14778 18-569) (receptor) | binds | –
Flag-tagged control wild-type IL-1R1 protein (from UniProt P14778 18-569) (receptor) | binds | –
Myc-tagged K131D mutant IL-1R1 protein (from UniProt P14778 18-569) (receptor) | – | binds
Myc-tagged K131E mutant IL-1R1 protein (from UniProt P14778 18-569) (receptor) | – | binds
Myc-tagged K131H mutant IL-1R1 protein (from UniProt P14778 18-569) (receptor) | – | binds
Myc-tagged K131R mutant IL-1R1 protein (from UniProt P14778 18-569) (receptor) | – | binds
Myc-tagged control wild-type IL-1R1 protein (from UniProt P14778 18-569) (receptor) | – | binds
